The values that follow come from patent US20100022446 (published 2010).

The nature of this data set: general procedure: Fmoc solid-phase peptide synthesis; Fmoc-Rink resin (4-(2',4'-dimethoxyphenyl-Fmoc-aminomethyl)-phenoxypolystyrene resin, Bachem D-2080; 0.47 mmol/g); HOBt (HOAt with DIPEA for Fmoc-Glu(2-phenylisopropyloxy)-OH). As to conditions: whole synthesis, hydrochloride.

Consider “16-(tetrazol-5-yl)hexadecanoyl-Gly-Thr-GIn-His-Ser-Nle-c[Glu-Hyp-D-Phe-Arg-Trp-Lys]-NH2”, for which the “final HPLC purity” value (UV 214 nm, scale of the general procedure 0.10 mmol) is listed as 100%. In addition, under “scale 0.10 mmol”, the isolated mass is 27.8 mg and the isolated yield worked out at 16%.
